PubChem BioAssay AID504784, Drosophila RNAi Screening Center, 2011
Assay: 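Fly genes whose silencing alters how much lipid cells keep in droplets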 (primary screen). System: Drosophila Kc167 embryonic cells. Knock-down reagent: long dsRNA against Drosophila genes, about 250 ng dsRNA per well. Duration: 4 days. Treatment: cells fed 400 µM oleic acid bound to BSA. Read-out: 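Microscope images give a droplet-to-nucleus area ratio, taken as log and converted to a screen-wide B-score; higher values mean greater lipid storage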. Scale: droplet/nuclear area B-score: higher = more stored lipid (overstorage).
The deposit covers about 17,000 reagents; below is a random part of those that have a named target and a result. 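Each column is one replicate's B-score; the combined score over replicates was not deposited, so single values may mislead.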 A plus sign joins genes that one reagent is predicted to hit. Not all columns of the deposit are shown.

no.	gene	dsRNA	droplet/nuclear area B-score, replicate 1
1	CG15602	DRSC19671	0.118
2	CG9411	DRSC20184	0.94
3	PAN3 (Poly(A) specific ribonuclease subunit PAN3)	DRSC08190	-1.07
4	GNBP1 (Gram-negative bacteria binding protein 1)	DRSC11169	-0.615
5	GNBP1 (Gram-negative bacteria binding protein 1)	DRSC21836	3.07
6	CG42258	DRSC19741	-1.9
7	CG42258	DRSC19783	1.34
8	CG42258	DRSC23161	1.35
9	sob	DRSC00838	1.09
10	Uxs (UDP-xylose synthase)	DRSC10941	-2.69
11	mei-38 (meiotic 38)	DRSC18564	-0.21
12	CG31102	DRSC14260	1.73
13	jv (javelin)	DRSC08831	-1.75
14	Hrs (Hepatocyte growth factor regulated tyrosine kinase substrate)	DRSC00549	-0.713
15	CG14718	DRSC14941	0.72
16	CG12818	DRSC14556	-1.81
17	qkr54B (quaking related 54B)	DRSC07670	-1.15
18	Octalpha2R (alpha2-adrenergic-like octopamine receptor)	DRSC13319	-0.376
19	Octalpha2R (alpha2-adrenergic-like octopamine receptor)	DRSC15314	2.69
20	CG8379	DRSC16414	-0.933
21	Vps28 (Vacuolar protein sorting 28)	DRSC06168	-0.334
22	LManVI (Lysosomal alpha-mannosidase VI)	DRSC03224	2.99
23	HP4 (Heterochromatin protein 4)	DRSC10958	-0.000199
24	Obp50d (Odorant-binding protein 50d)	DRSC05483	-1.38
25	CG9705	DRSC11094	-0.664
26	CG17163	DRSC20901	-0.292
27	CG5376	DRSC15782	0.199
28	Acp32CD (Accessory gland protein 32CD)	DRSC01858	0.00317
29	jhamt (juvenile hormone acid methyltransferase)	DRSC01985	1.66
30	U4-U6-60K (U4-U6 small nuclear riboprotein factor 60K)	DRSC10624	-1.91
31	CG2006	DRSC15412	2.61
32	CG5910	DRSC11786	-0.0483
33	CG42724	DRSC12567	0.793
34	CG42724	DRSC22275	3.15
35	stg (string)	DRSC17071	2.35
36	muskelin	DRSC07273	-0.446
37	CG17472	DRSC02622	-1.87
38	slou (slouch)	DRSC17058	-0.547

4 consecutive records already listed, for reference:
no.	gene	dsRNA	droplet/nuclear area B-score, replicate 1
9	sob	DRSC00838	1.09
10	Uxs (UDP-xylose synthase)	DRSC10941	-2.69
11	mei-38 (meiotic 38)	DRSC18564	-0.21
12	CG31102	DRSC14260	1.73

More results follow:
no.	gene	dsRNA	droplet/nuclear area B-score, replicate 1
39	Strip (Striatin interacting protein)	DRSC08194	-0.37
40	CG18661	DRSC02690	-0.0893
41	Uck (Uridine-cytidine kinase)	DRSC16028	-0.0202
42	Uba4 (Ubiquitin-like activating enzyme 4)	DRSC02194	-1.63
43	Jhedup (Juvenile hormone esterase duplication)	DRSC07173	1.63
44	LS2 (Large Subunit 2)	DRSC04340	1.9
45	Vm26Ab (Vitelline membrane 26Ab)	DRSC03473	-0.214
46	Rpp25 (Ribonuclease P/MRP subunit p25)	DRSC05002	1.02
47	Uro (Urate oxidase)	DRSC03469	1.65
48	Dhpr (Dihydropteridine reductase)	DRSC11135	-0.591
49	Alg13 (Alg13 UDP-N-acetylglucosaminyltransferase subunit)	DRSC14864	-0.945
50	CG13727	DRSC10055	0.348
51	CG31388	DRSC15254	-2.95
52	CG11162	DRSC19391	-0.694
53	CG11162	DRSC22538	-0.771
54	CG8677 + CG31626	DRSC01838	1.52
55	CycJ (Cyclin J)	DRSC08653	0.0196
56	CG18810	DRSC02701	0.468
57	dpr7 (defective proboscis extension response 7)	DRSC17109	0.694
58	vg (vestigial)	DRSC07715	0.0471
59	vg (vestigial)	DRSC22669	-0.836
60	Act79B (Actin 79B)	DRSC11604	-0.824
61	CG15641	DRSC19677	-0.375
62	resilin	DRSC05627	0.173
63	resilin	DRSC06595	0.00723
64	CG32365	DRSC10040	0.455
65	CG32365	DRSC10041	-1.6
66	CG32365	DRSC10977	0.0111
67	Ugt49B2 (UDP-glycosyltransferase family 49 member B2)	DRSC16049	-0.175
68	Arpc3B (Actin-related protein 2/3 complex, subunit 3B)	DRSC20126	1.01
69	magu	DRSC06832	1.21
70	Jhbp13 (Juvenile hormone binding protein 13)	DRSC02913	-1.41
71	Cyp9b2 (Cytochrome P450 9b2)	DRSC07390	0.309
72	CtsK1 (Cathepsin K1)	DRSC08742	1.16
73	CG10973	DRSC09813	-0.657
74	Atg8a (Autophagy-related 8a)	DRSC18024	-0.509
75	otu (ovarian tumor)	DRSC18811	1.53
76	Ir41a (Ionotropic receptor 41a)	DRSC04730	-0.835
77	Ir41a (Ionotropic receptor 41a)	DRSC04875	-0.484
78	Tret1-2 (Trehalose transporter 1-2)	DRSC07117	-0.49
79	CG13047	DRSC09928	-0.701
80	CG12003	DRSC08214	-0.235
81	CG34393	DRSC00419	-1.52
82	CG34393	DRSC00710	-0.0568
83	Obp18a (Odorant-binding protein 18a)	DRSC19736	-0.36
